PubChem BioAssay AID1159584 – Peter MacCallum Cancer Centre, 2016
This is an unselected part of about 18,000 reagents. Not given: the amount of reagent, the time to read-out.

- Screen: 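Genes that CDH1-null MCF10A cells selectively depend on to survive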 (primary screen)
- Cells: human MCF10A breast epithelial cells, parental and CDH1-null
- Knock-down reagent: siRNA against human genes
- Measured: 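Cell viability by CellTiter-Glo ATP luminescence, each line scaled to the mean of mock wells across plates, then CDH1-null over parental ratio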
- Direction: CDH1-null / parental viability ratio: higher = CDH1-null cells survive relatively better than parental; CDH1-null viability vs mock: higher = more viable CDH1-null cells; parental viability vs mock: higher = more viable parental cells

no.	target gene	CDH1-null / parental viability ratio	CDH1-null viability vs mock (fraction of mock)	parental viability vs mock (fraction of mock)
1	PAPOLB (GeneID 56903)	0.82	0.64	0.78
2	PPP1R8 (GeneID 5511)	1.63	0.62	0.38
3	BZW1 (GeneID 9689)	0.74	0.64	0.86
4	HAUS7 (GeneID 55559)	1.34	0.91	0.68
5	GAA (GeneID 2548)	1.22	0.88	0.72
6	UCN3 (GeneID 114131)	1.14	0.84	0.74
7	ELOA (GeneID 6924)	0.8	0.9	1.13
8	ELAVL1 (GeneID 1994)	1.04	0.87	0.84
9	CENPBD1P (GeneID 92806)	1.06	1	0.94
10	RRAGA (GeneID 10670)	0.85	0.82	0.97
11	SLC25A27 (GeneID 9481)	0.75	0.51	0.68
12	ZNF616 (GeneID 90317)	1.15	1.01	0.88
13	RASSF7 (GeneID 8045)	1.02	0.52	0.51
14	IFI44L (GeneID 10964)	1.08	0.81	0.75
15	TCEAL5 (GeneID 340543)	0.79	0.6	0.76
16	MRPL12 (GeneID 6182)	1.13	0.88	0.78
17	NXPE3 (GeneID 91775)	0.84	0.72	0.86
18	KCNH1 (GeneID 3756)	1.26	0.92	0.73
19	GNG13 (GeneID 51764)	0.88	0.3	0.34
20	FRYL (GeneID 285527)	0.94	0.98	1.04
21	VCP (GeneID 7415)	1	0.58	0.58
22	ZNF223 (GeneID 7766)	0.91	0.73	0.8
23	MPP7 (GeneID 143098)	1.05	0.9	0.86
24	RNASEH1 (GeneID 246243)	0.97	1.11	1.15
25	ANKRD24 (GeneID 170961)	1.07	0.94	0.88
26	HGFAC (GeneID 3083)	1.38	0.58	0.42
27	LCE3D (GeneID 84648)	1.27	0.76	0.6
28	NNMT (GeneID 4837)	1.05	0.82	0.78

2 entries from above, reformatted:
target gene	CDH1-null / parental viability ratio	CDH1-null viability vs mock (fraction of mock)	parental viability vs mock (fraction of mock)
UCN3 (GeneID 114131)	1.14	0.84	0.74
ELOA (GeneID 6924)	0.8	0.9	1.13
